In CN114605541A:
Results are given in words; binding and its absence hold for the method and conditions named. Some results given as binding are weak or reduced against the parent protein; the word gives no strength.

The chains behind the UniProt entries cited, without tags or fusion partners. Residues count along the entry.
UniProt Q07011, residues 24-186: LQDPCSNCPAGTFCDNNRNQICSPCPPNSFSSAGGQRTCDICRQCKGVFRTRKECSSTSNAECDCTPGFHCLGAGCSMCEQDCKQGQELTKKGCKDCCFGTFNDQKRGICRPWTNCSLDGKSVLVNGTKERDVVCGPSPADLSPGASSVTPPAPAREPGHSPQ

target: 4-1BB ECD蛋白 (4-1BB extracellular domain, Fc tag cut off with thrombin) (UniProt Q07011); experiment: monoclonal phage ELISA on coated 4-1BB, first and second round (CD28 and BSA as negative controls)

| Binder | binding |
| --- | --- |
| P1-7D (VHH) VHH: AVQLVESGGGLVQPGGSLRLTCAASGDIFSSQPMSWYRQAPGKRRDLVAWIAWDNIAHYTDSAKGRFTISRDNTKKTTWLQMNSLKLEDTAVYYCASGDSWGQGTQVTVSS | binds |
| P1-4B (VHH) VHH: AVQLVESGGGLVQPGGSLRLSCAASGSIFSINRMGWYRQAPGKQRELVAMINSSGGTYYVDSVKGRFTISRDNAKIAIDLQTNSLKPEDTAVYYCHCWVSHEMNYWGKGTQVTVSS | binds |
| P1-1E (VHH) VHH: AVQLVESGGGLVQPGGSLRLSCAASGSIFSIYAMVWYRQAPGKQRDFVASITSGGSTIYADSVKGRFTISRDNAKNTTYLQMNSLKPEDTAVYYCNSLGSWDGERYEYDYWGQGTQVTVSS | binds |
| P1-12H (VHH) VHH: AVQLVESGGGLVQPGGSLRLSCAASGSIFSIYAMVWYRQAPGKQRDFVASITSGGSTIYADSVKGRFTISRDNAKNTTYLQMNSLKPEDTAVYHCNSLGSWDGERYEYDYWGQGTQVTVSS | binds |
| P1-1B (VHH) VHH: AVQLVESGGGSVQPGGSLRLSCAASGNIFNIHVSAWYRQAPGKQRELVAWIAWDNVAHYADSAKGRFTISRDNTNKTAYLQMNSLNVEDTAVYYCNSGDIWGQGTQVTVSS | binds |
| P2-2H (VHH) VHH: AVQLVESGGGLVQPGGSLRLSCAASGNISSIRVISWYRQGSGKQRELVAWFAWDNVAHYVDSVKGRFTISRDNTKKTTYLQMNSLKLEDTDVYYCNSGDSWGQGTQVTVSS | binds |
| P1-4F (VHH) VHH: AVQLVESGGGLVQPGGSLRLSCAAPGNISSLRVIAWYRQGPGKQRELVAWIAWDDIAHYVDSAKGRFAIWRDNTKKTTYLQMNSLKLEDTDVYYCNSGDSWGQGTQVTVSS | binds |
| P1-1A (VHH) VHH: AVQLVESGGGLVQPGGSLRLSCAASGNISSLRVIAWYRQGPGKQRELVAWIAWDDIAHYVDSAKGRFAIWRDNTKKTTYLQMNSLKLEDTDVYYCNSGDSWGQGTQVTVSS | binds |
| P1-10B (VHH) VHH: AVQLVESGGGLVQPGGSLRLSCVASGNIFSIRVWSWYRQAPGKQRELVAWFAWDNIAHYTDSAKGRFTISRDNTKKTLYLQMNSLKLEDTAVYYCNSEDSWGQGTQVTVSS | binds |
| P1-6H (VHH) VHH: AVQLVESGGGLVQPGGSLRLSCAASGNIFSIRVMSWYRQAPGKQRELVAWFAWDNIAHYADSAKGRFTISRDNTKKTLYLQMNSLKLEDTAVYYCNSGDSWGPGTQVTVSS | binds |
| P1-1C (VHH) VHH: AVQLVESGGGLVQPGGSLRLSCAASGNIFSIRVWSWYRQAPGKQRELVAWFAWDNIAHYTDSAKGRFTISRDNTKKTLYLQMNSLKLEDTAVYYCNSEDSWGQGTQVTVSS | binds |
| P1-8B (VHH) VHH: AVQLVESGGGLVQPGGSLRLSCAASGNISSIRVISWYRQGPGKQRELVAWIAWDNIAHYVDSAKGRFTISRDNTKKTTYLQMNSLKLEDTDVYYCNSGDSWGQGTQVTVSS | binds |
| P2-3F (VHH) VHH: AVQLVESGGGLVQPGGSLRLSCAASGNIFDIRIMSWYRQAPGKQRDLVAWIAWDNVAHYGDSAKGRFTISRDNTKKTWYLQMNSLKLEDTAVYYCNSGDSWGQGTQVTVSS | binds |
| P1-1G (VHH) VHH: AVQLVESGGGLVQPGGSLRLSCAASGNIFDIRVISWYRQATGKQRELVAWIAWDNVAHYVDSAKGRFTISRDNTKKTTYLQMNSLKLEDTAVYYCNSGDSWGQGTQVTVSS | binds |
| P2-3C (VHH) VHH: AVQLVESGGGLVQPGGSLRLSCAASGNIFSIRVMSWYRQAPGKQRELVAWIAWDNVVHYGDSAKGRFTMSRDNTKKTAYLQMNSLKLEDTAVYYCNSGDSWGQGTQVTVSS | binds |
| P1-1F (VHH) VHH: AVQLVESGGGLVQPGGSLRLSCAVSGNIFSIRVMSWYRQAPGKQRELVAWFAWDNIAHYADSAKGRFTISRDNTKKTLYLQMNSLKLEDTAVYYCNSGDSWGPGTQVTVSS | binds |
| P2-2E (VHH) VHH: AVQLVESGGGLVQPGGSLRLSCAASGNIFSIRVWSWYRQAPGKQRELVAWFAWDNIAHYTDSVKGRFTISRDNTKKTLYLQMNSLKLEDTAVYYCNSEDSWGQGTQVTVSS | binds |
| P1-2F (VHH) VHH: AVQLVESGGGLVQPGGSVRLSCAASGSIFSSYAVAWYRQAPGKPRELVAVISSEGTTRYADSVKGRFTISRDNAKNTVYLQMNSLKPEDTAVYYCFGGRSSMGTWGQGTQVTVSS | binds |
| P2-1D (VHH) VHH: AVQLVESGGGLVQPGGSLRLSCAASGSIFSSYAVAWYRQAPGKPRELVAVISSEGTTRYADSVKGRFTISRDNAKNTVYLQMNSLKPEDTAVYYCFGGRSSMGTWGQGTQVTVSS | binds |

Continued, values first:

| binding | Binder |
| --- | --- |
| binds | P2-7D (VHH) VHH: AVQLVESGGGLVQPGGSLRLSCAASGSIFSIDRMGWYRQAPGKQRELVAMINSSGGTYYLDSVKGRFTISRDNAKIAMYLQMNSLKSEDTAVYYCHYWISHEMNYWGKGTQVTVSS |
| binds | P2-5A (VHH) VHH: AVQLVESGGGLVQPGGSLRLSCAASGFTFSSYASSWVRQAPGKGLEWVAGINSDSGRMSYADSVKGRFTISRDNAKNTQYLQMISLKSEDTAVYYCATHSGWSRLDYIRYWGQGTQVTVSS |
| binds | P2-11H (VHH) VHH: AVQLVESGGGLVQPGGSLRLSCAASGSIFSIYAMAWYRQAPGKQRDFVASITSGGSTIYADSVKGRFTISRDNAKNTTYLQMNSLKPEDTAVYYCNSLGSWDGERYEYDYWGQGTQVTVSS |
| binds | P2-4B (VHH) VHH: AVQLVESGGGLVQPGGSLRLSCAASGNIFSIHVSAWYRQAPGKQRELVAWIAWDNVAHYADSAKGRFTISRDNTKKTTYLQMNSLKLEDTAAYYCNSGDFWGQGTQVTVSS |
| binds | P2-9C (VHH) VHH: AVQLVESGGGLVQPGGSLRLSCAASGNIFSIRVWSWYRQAPGKQRELVAWFAWDNIAHYTDSAKGRSTISRDNTKKTLYLQMNSLKLEDTAVYYCNSEDSWGQGTQVTVSS |
| binds | P2-10H (VHH) VHH: AVQLVESGGGLVQPGGSLRLSCAASGNIFSIRVWSWYRQAPGKQRELVAWFAWDNIAHYTDSAKGRFTISRDNTKKTLYLQMDSLKLEDTAVYYCNSEDSWGQGTQVTVSS |
| binds | P2-12G (VHH) VHH: AVQLVESGGGLVQPGGSLRLSCAASGNIFSIRVSAWYRQAPGKQRELVAWIAWDNIAHYADSAKGRFTISRDNTKKTAYLQMNSLKLEDTAVYYCNSGDSWGQGTQVTVSS |
| binds | P2-9H (VHH) VHH: AVQLVESGGGLVQPGGSLRLSCAASGNIFSIRVWSWYRQAPGKQRELVAWFAWDNIAHYTNSAKGRFTISRDNTKKTLYLQMNSLKLEDTAVYYCNSEDSWGQGTQVTVSS |
| binds | P2-7F (VHH) VHH: AVQLVESGGGLVQPGGSLRLSCAASGNIFSIRVWSWYRQAPGKQRELVAWFAWDNIAHYTDSAKGRFTISRDNTKKTMYLQMNSLKLEDTAVYYCNSGDSWGQGTQVTVSS |
| binds | P2-8A (VHH) VHH: AVQLVESGGGLVQPGGSLRLSCAASGNIFSIRVWSWYRQAPGKQRELVAWFAWDNIAHYTDSAKGRFAISRDNTKKTLYLQMNSLKLEDTAVYYCNSEDSWGQGTQVTVSS |
| binds | P2-8G (VHH) VHH: AVQLVESGGGLVQPGGSLRLSCAASGNIFNIRVRSWYRQAPGKQRELVAWIAWDNVAHYADSAKGRFTISRDNTKKTMYLQMNSLKLEDTAVYYCNSEDSWGQGTQVTVSS |
| binds | P2-11D (VHH) VHH: AVQLVESGGGLVQSGGSLRLSCAASGNISSLHVIAWYRQGPGKQRELVAWIAWDDIAHYVDSAKGRFAIWRDNTKKTTYLQMNSLKLEDTDVYYCNSGDSWGQGTQVTVSS |
| binds | P2-10F (VHH) VHH: AVQLVESGGGLVQPGGSLRLSCAASGSIFSIYAMGWYRQAPGKQREVVALITSGGSTVYGDSVKGRFTISRDNAKNTVYLQMNSLKPEDTAVYYCNALGGWENGKYKYDYWGQGTQVTVSS |
